# PubChem BioAssay AID743454 | Peter MacCallum Cancer Centre, 2014
# Assay: 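Knock-downs lowering viability or raising caspase 3/7 activity in vorinostat-treated resistant cells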 (primary screen)
# Cell system: human HCT116-VR colon cancer cells, selected for vorinostat resistance
# Reagents: siRNA pool against human genes, 40 nM siRNA pool
# Time to read-out: vorinostat for 24 h, read-out about 72 h after transfection
# Challenge: vorinostat at 2.5 µM final
# Measurement: 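Cell viability by CellTiter-Fluor and caspase 3/7 activity by luminescence, each scaled to mock wells per plate, duplicates averaged, then robust z-scored over all plates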
# Scale: viability robust z-score: higher = more viable cells than screen typical; caspase robust z-score: higher = more caspase 3/7 activity than screen typical
# Call rule: 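a knock-down is a hit when classed RV1 or RV2 for lowered viability, or CA1 or CA2 for caspase activation; those lethal without drug were dropped; hits were retested singly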
# Here is one part, drawn at random, of about 18,000 deposited reagents. Over the whole deposit, 450 (2.5%) were called active. 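Single biological run; no consistent viability z cut-off exists, so the class columns, not z-scores, define the calls.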 Entries without a mark were called inactive.
gene symbol,viability hit class,caspase hit class,viability robust z-score,caspase robust z-score
APIP (GeneID 51074),no change,no change,0.86,-0.86
UBQLN2 (GeneID 29978),no change,no change,-0.91,2.88
GTF2IRD2B (GeneID 389524),no change,no change,0.22,0.58
SLC30A4 (GeneID 7782),no change,no change,0.55,-0.46
GAGE6 (GeneID 2578),no change,no change,-0.17,-0.12
TYROBP (GeneID 7305),no change,no change,0.55,0.52
HBG1 (GeneID 3047),no change,no change,0.73,0.01
ESPNL (GeneID 339768),no change,no change,0.86,1.04
CMTM4 (GeneID 146223),no change,no change,0.48,-1.46
DSG4 (GeneID 147409),no change,no change,0.83,0.55
CNTN6 (GeneID 27255),no change,no change,0.93,-0.55
SPRYD7 (GeneID 57213),no change,no change,-0.98,0.72
RAB31 (GeneID 11031),no change,no change,-0.24,-0.56
RLN2 (GeneID 6019),no change,no change,-0.02,-0.5
MAN1A1 (GeneID 4121),no change,no change,1.48,0.38
PHAF1 (GeneID 80262),no change,no change,0.34,-0.1
SAP30 (GeneID 8819),no change,no change,0.44,-0.36
NAT9 (GeneID 26151),no change,no change,0.04,-0.12
SNTG2 (GeneID 54221),no change,no change,-1.89,0.24
PTK6 (GeneID 5753),no change,no change,0.2,-0.73
MET (GeneID 4233),no change,no change,0.52,-0.96
CHD9 (GeneID 80205),no change,no change,0.6,0.79
TP53RK (GeneID 112858),no change,no change,-0.1,1.64
MTRF1 (GeneID 9617),no change,no change,1,-0.03
ZHX1 (GeneID 11244),no change,no change,0.05,-0.78
ACSL5 (GeneID 51703),no change,no change,-0.64,-1.14
CAB39L (GeneID 81617),no change,no change,-0.18,0.52
PGBD4 (GeneID 161779),no change,no change,0.27,-0.52
SRFBP1 (GeneID 153443),no change,no change,-1.41,-0.92
PSMB10 (GeneID 5699),no change,no change,-0.58,1.84
ACKR1 (GeneID 2532),no change,no change,-2.38,-0.01
PPP1R15B (GeneID 84919),no change,no change,-1.95,-1.12
SLC51B (GeneID 123264),no change,no change,0.3,1.81
PDLIM2 (GeneID 64236),no change,no change,-0.18,-0.43
CHRAC1 (GeneID 54108),no change,no change,-0.08,4
OR2G2 (GeneID 81470),no change,no change,0.01,0.09
SCT (GeneID 6343),no change,no change,-2.16,1.35
CAB39 (GeneID 51719),no change,no change,-0.2,-0.63
ARF1 (GeneID 375),no change,no change,-1.77,3
FAM110C (GeneID 642273),no change,no change,-2.56,-1.27
NMNAT2 (GeneID 23057),no change,no change,1.21,-0.26
PPIG (GeneID 9360),no change,no change,-0.31,-0.16
ZSWIM4 (GeneID 65249),no change,no change,-0.03,-0.98
SPATS1 (GeneID 221409),no change,no change,-0.39,-0.86
ACTRT1 (GeneID 139741),no change,no change,-2.52,-0.24
LHX4 (GeneID 89884),no change,no change,0.7,-0.4
TNFRSF8 (GeneID 943),no change,no change,-1.38,2.51
OR6X1 (GeneID 390260),no change,no change,-0.82,1.04
RLN1 (GeneID 6013),no change,no change,0.08,0.5
STK32C (GeneID 282974),no change,no change,1.34,-0.22
POPDC1 (GeneID 11149),no change,no change,0.09,-0.65
ADGRL1 (GeneID 22859),no change,no change,0.68,-0.77
ARSF (GeneID 416),no change,no change,-0.48,0
CASTOR3P (GeneID 352954),no change (active),CA1 (caspase activation),-0.56,6.53
RPL27A (GeneID 6157),no change,no change,-5.05,-1.51
RHOG (GeneID 391),no change,no change,0.12,-0.57
TTC8 (GeneID 123016),no change,no change,1.31,0.34

Quoted from above (6 entries):
gene symbol,viability hit class,caspase hit class,viability robust z-score,caspase robust z-score
GAGE6 (GeneID 2578),no change,no change,-0.17,-0.12
TYROBP (GeneID 7305),no change,no change,0.55,0.52
HBG1 (GeneID 3047),no change,no change,0.73,0.01
ESPNL (GeneID 339768),no change,no change,0.86,1.04
CMTM4 (GeneID 146223),no change,no change,0.48,-1.46
DSG4 (GeneID 147409),no change,no change,0.83,0.55
